Laboratory results: patent US20230339916A1, “PLANT GROWTH REGULATOR COMPOUNDS” (SYNGENTA CROP PROTECTION AG, priority 2020, published 2023)
Some of these results come from one statement about several compounds together.

By UniProt entry, the sequences of proteins in these tests, tags left out.
UniProt B6TRW7, entry or part of it: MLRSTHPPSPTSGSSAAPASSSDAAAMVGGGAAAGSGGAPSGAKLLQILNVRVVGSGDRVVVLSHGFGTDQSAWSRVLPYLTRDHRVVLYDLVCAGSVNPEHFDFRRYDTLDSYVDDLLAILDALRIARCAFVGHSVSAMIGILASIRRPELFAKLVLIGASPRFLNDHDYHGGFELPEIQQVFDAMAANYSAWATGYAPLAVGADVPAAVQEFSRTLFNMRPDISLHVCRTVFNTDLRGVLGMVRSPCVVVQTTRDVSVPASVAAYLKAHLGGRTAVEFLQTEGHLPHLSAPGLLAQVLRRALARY

Target: ZmD14 (strigolactone receptor D14) (Zea mays, UniProt B6TRW7)
Test: Yoshimulactone Green (YLG) displacement assay
Assay type: binding
Conditions: ZmD14 1 μg, YLG 1 μM, PBS 0.1% BSA, 1% DMSO; 8-point dilution curve, 30 μM top concentration; read-out: IC50 (half-maximal inhibitory concentration, YLG hydrolysis by D14)

IC50, < 5 µM:
CCOC(=O)/C(=C/OC1C=C(C)C(=O)O1)N1CCc2cc(Br)ccc21 (centres unmarked) [Compound I-72-Z, ethyl (Z)-2-(5-bromoindolin-1-yl)-3-[(4-methyl-5-oxo-2H-furan-2-yl)oxy]prop-2-enoate]
CCOC(=O)/C(=C/OC1OC(=O)C(C)=C1C)N1CCc2cc(Br)ccc21 (centres unmarked) [Compound I-73-Z, ethyl (Z)-2-(5-bromoindolin-1-yl)-3-[(3,4-dimethyl-5-oxo-2H-furan-2-yl)oxy]prop-2-enoate]
CCOC(=O)/C(=C/OC1C=C(C)C(=O)O1)N1C(=O)CSc2ccccc21 (centres unmarked) [Compound I-78-Z, ethyl (Z)-3-[(4-methyl-5-oxo-2H-furan-2-yl)oxy]-2-(3-oxo-1,4-benzothiazin-4-yl)prop-2-enoate]
CCOC(=O)/C(=C/OC1OC(=O)C(C)=C1C)N1C(=O)CSc2ccccc21 (centres unmarked) [Compound I-79-Z, ethyl (Z)-3-[(3,4-dimethyl-5-oxo-2H-furan-2-yl)oxy]-2-(3-oxo-1,4-benzothiazin-4-yl)prop-2-enoate]
CCOC(=O)/C(=C/OC1C=C(C)C(=O)O1)n1nc(C)c(C)c1C (centres unmarked) [Compound I-80-Z, ethyl (Z)-3-[(4-methyl-5-oxo-2H-furan-2-yl)oxy]-2-(3,4,5-trimethylpyrazol-1-yl)prop-2-enoate]
CCOC(=O)/C(=C/OC1OC(=O)C(C)=C1C)n1nc(C)c(C)c1C (centres unmarked) [Compound I-81-Z, ethyl (Z)-3-[(3,4-dimethyl-5-oxo-2H-furan-2-yl)oxy]-2-(3,4,5-trimethylpyrazol-1-yl)prop-2-enoate]
CNC(=O)/C(=C/OC1C=C(C)C(=O)O1)n1cc(C#N)c2ccccc21 (centres unmarked) [Compound I-82-Z, (Z)-2-(3-cyanoindol-1-yl)-N-methyl-3-[(4-methyl-5-oxo-2H-furan-2-yl)oxy]prop-2-enamide]
CNC(=O)/C(=C/OC1OC(=O)C(C)=C1C)n1cc(C#N)c2ccccc21 (centres unmarked) [Compound I-83-Z, (Z)-2-(3-cyanoindol-1-yl)-3-[(3,4-dimethyl-5-oxo-2H-furan-2-yl)oxy]-N-methyl-prop-2-enamide]
CC1=CC(O/C=C(/C(=O)N(C)C)n2cc(C#N)c3ccccc32)OC1=O (centres unmarked) [Compound I-86-Z, (Z)-2-(3-cyanoindol-1-yl)-N,N-dimethyl-3-[(4-methyl-5-oxo-2H-furan-2-yl)oxy]prop-2-enamide]
CCOC(=O)/C(=C/OC1OC(=O)C(C)=C1OC)n1cc(C#N)c2ccccc21 (centres unmarked) [Compound I-88-Z, ethyl (Z)-2-(3-cyanoindol-1-yl)-3-[(3-methoxy-4-methyl-5-oxo-2H-furan-2-yl)oxy]prop-2-enoate]
CCOC(=O)/C(=C/OC1OC(=O)C(C)=C1C)n1ccc2nccnc21 (centres unmarked) [Compound I-90-Z, ethyl (Z)-3-[(3,4-dimethyl-5-oxo-2H-furan-2-yl)oxy]-2-pyrrolo[2,3-b]pyrazin-5-yl-prop-2-enoate]
